Test results taken from paper PMC12040169 (PLOS Biology, 2025).
Some of the results follow.

Each compound was assayed on T1, CTL2-GFP (C. trachomatis L2/434/Bu, GFP-expressing). Details: bulk GFP, single well; 28.5 h, 10 µM; inhibitor.
T1 construct: L2/434/Bu, GFP-expressing
Parameters: species or system HeLa; Intracellular C. trachomatis growth in HeLa cells, bulk GFP fluorescence relative to DMSO

Compound	% of control remaining
CCn1cncc1C(=O)Nc1ccc(-n2ccnc2C(C)C)cc1 [CBK281379]	100.737%
CC(C)(C)CC(C)(C)NC(=O)NCCc1cccs1 [CBK038697]	108.48%
CCCCOC(=O)c1c(N)n(-c2ccc(C(=O)O)cc2)c2nc3ccccc3nc12 [CBK265046]	100%
Cn1c(SCC(=O)N2CCN(c3cccc(Cl)c3)CC2)nnc1-c1cccc([N+](=O)[O-])c1 [CBK266264]	144.485%
CCN1CC2(CCN(Cc3ncc[nH]3)CC2)c2ccccc21 [CBK131486]	182.095%
CCCC(=O)N1CCC[C@H]1Cn1nc(-c2ccc(F)cc2)ccc1=O [CBK284288]	114.114%
O=C(Oc1ccc(F)cc1C(=O)/C=C/c1cccs1)c1ccc([N+](=O)[O-])cc1 [CBK264925]	120.983%
CN(C)CCn1cnc2c1c(=O)[nH]c(=O)n2Cc1ccccc1 [CBK291235]	122.029%
CCCCNc1cc(N2CCOC(Cn3cc(C)cn3)C2)nc(N)n1 (stereo not drawn) [CBK305417]	79.3767%
CC(C)OC(=O)Cn1c(C2CCCNC2)cc2cccnc21 (stereo not drawn) [CBK285058]	123.443%
Cn1cc(C2CCCCCN2C(=O)c2ccccc2F)cn1 (stereo not drawn) [CBK285119]	107.473%
COc1cc(-c2cncc(NCc3ccncc3)n2)cc(OC)c1OC [CBK065263]	133.445%
O=C(CCC(=O)Nc1ccc(I)cc1)N/N=C/c1ccc(Br)cc1 [CBK262010]	107.824%
CC(=O)N1CCc2cc(-c3cc4c(C)cccn4c3)ccc21 [CBK285225]	131.169%
CC(NC(=O)Cc1ccc(F)cc1)c1nc2cccnc2n1C(C)C (stereo not drawn) [CBK283830]	120.569%
COc1ccc2cc(COC(=O)c3ccc([S+](C)[O-])cc3)c(Cl)nc2c1 (stereo not drawn) [CBK298267]	138.505%
Cc1ccc(NC(=O)Cc2ccc(N(C)C)cc2)c(C)n1 [CBK200295]	135.107%
CC(C)Nc1cncc(OC2CCOC2)n1 (stereo not drawn) [CBK115882]	135.123%
Cc1cccc(-c2nnc(SCC3CC3)n2CC2CCCCC2)c1 [CBK085423]	115.218%
COc1ccc(S(=O)(=O)N(Cc2c(F)cccc2F)C2CCN(C)CC2)cc1 [CBK161910T]	110.633%
CCCn1nnc(NCc2ccc(Cl)cc2)n1 [CBK288089]	140.748%
CCOC(=O)c1c(N)n(-c2cccc(C(F)(F)F)c2)c2nc3ccccc3nc12 [CBK264977]	113.603%
CCCCSc1nc(N)cc(N2CCC(C(=O)N3CCOCC3)CC2)n1 [CBK306619]	109.973%
CC(Cn1cccn1)C(=O)N1CCc2sccc2C1C (stereo not drawn) [CBK282074]	95.5147%
Cc1ccc(Cl)cc1N(CC(=O)Nc1ccccc1C(=O)O)S(C)(=O)=O [CBK264020]	100%
CN(C)c1cccc(Nc2cc(-c3cccc([N+](=O)[O-])c3)ncn2)c1 [CBK091012]	116.92%

Reformatted: four of the compounds above.
Compound | % of control remaining
CC(NC(=O)Cc1ccc(F)cc1)c1nc2cccnc2n1C(C)C (stereo not drawn) [CBK283830] | 120.569%
COc1ccc2cc(COC(=O)c3ccc([S+](C)[O-])cc3)c(Cl)nc2c1 (stereo not drawn) [CBK298267] | 138.505%
Cc1ccc(NC(=O)Cc2ccc(N(C)C)cc2)c(C)n1 [CBK200295] | 135.107%
CC(C)Nc1cncc(OC2CCOC2)n1 (stereo not drawn) [CBK115882] | 135.123%

Further structures.

Compound	% of control remaining
O=C(NCC(c1cccnc1)N1CCOCC1)c1cnc(-c2ccc(Cl)cc2)c(-c2ccco2)c1 (stereo not drawn) [CBK037554]	207.819%
O=C(NCc1cccs1)C1(c2ccccc2)CCCC1 [CBK149533]	115.877%
O=C(NCCCn1ccnc1)c1cc(-c2ccccc2Cl)nc2ccccc12 [CBK262656]	112.06%
CCOc1cc(/C=C2/SC(=S)N(c3cccc(Cl)c3)C2=O)ccc1OCC(=O)O [CBK264966]	107.896%
Nc1nc(/C=C/c2cccs2)nc(-c2ccccc2O)n1 [CBK270033]	113.017%
CS(=O)(=O)Nc1nccnc1OC1CCN(CC2CCCCC2)CC1 [CBK084284]	106.262%
COc1ccnc(N2CCN(C(=O)c3ccncc3Cl)CC2)n1 [CBK304367]	75.3665%
O=C(O)CCc1ccc(S(=O)(=O)NCc2ccccc2)cc1 [CBK287054]	160.235%
Cc1nc(-c2ccccc2)sc1CNC(=O)/C=C\C(=O)Nc1ccc(F)cc1 [CBK092357]	154.058%
O=c1c2cnc3ccnn3c2ccn1C1CCCC1 [CBK288074]	4.4152%
CCC(Sc1nnc(-c2ccc([N+](=O)[O-])cc2)n1C)C(=O)Nc1ccc(Cl)cc1 (stereo not drawn) [CBK265785]	124.124%
O=S(=O)(Nc1cccc2[nH]ccc12)c1ccc(F)cc1 [CBK153522]	112.186%
O=C(CC1CCCO1)N1CCn2c(nnc2-c2cncc(Br)c2)C1 (stereo not drawn) [CBK304762]	117.13%
Cc1cc(N2CCC(c3cc(CCOc4ccc(Cl)cc4)[nH]n3)C2)nc(C)n1 (stereo not drawn) [CBK286119]	93.0159%
COc1cc(=O)n(C)c(C)n1 [CBK007924]	108.777%
CCN(CC)C(=O)C1CCCN(C(=O)Nc2ccc(Cl)cc2)C1 (stereo not drawn) [CBK156136]	133.981%
Cc1cc(C)n(C(C)CC(=O)Nc2cccc(OC(C)C)c2)n1 (stereo not drawn) [CBK281538]	101.12%
O=C(c1ccc(F)cc1)[C@H]1CCCN(C(=O)c2n[nH]c3c2CCC3)C1 [CBK282322]	121.073%
COCc1nc2n(n1)CC(NC1CCCCc3ccccc31)CC2 (stereo not drawn) [CBK304445]	103.43%
CN(C(=S)NCc1ccccc1)C1CC[C@@]2(c3ccc(F)cc3)CCN(C)[C@H]2C1 (stereo partly drawn) [CBK003500C]	118.494%
Cc1csc(-c2ccc(C(=O)N(C)CCN(C)C)c(N(C)C)n2)c1 [CBK106088]	126.476%
N#Cc1ccc(CNC2(Cc3cc(C(=O)N4CCCCC4)on3)COC2)cc1 [CBK289672]	166.233%
c1cc(COc2cncc(N3CCCC3)n2)cs1 [CBK115669]	129.467%
CCCc1cc(C(N)=O)c(NC(=O)c2sc3ccccc3c2Cl)s1 [CBK268178]	127.941%
O=C1CC(c2ccccc2)CC(NCc2ccccc2)=C1C(=S)Nc1ccccc1 (stereo not drawn) [CBK264491]	121.251%
